# Article PMC7819943, “Rice protein-binding microarrays: a tool to detect cis-acting elements near promoter regions in rice”
# Sequences of proteins named here, by UniProt entry; tags and fusion partners are left off.
# UniProt Q0JBA9, entry or part of it: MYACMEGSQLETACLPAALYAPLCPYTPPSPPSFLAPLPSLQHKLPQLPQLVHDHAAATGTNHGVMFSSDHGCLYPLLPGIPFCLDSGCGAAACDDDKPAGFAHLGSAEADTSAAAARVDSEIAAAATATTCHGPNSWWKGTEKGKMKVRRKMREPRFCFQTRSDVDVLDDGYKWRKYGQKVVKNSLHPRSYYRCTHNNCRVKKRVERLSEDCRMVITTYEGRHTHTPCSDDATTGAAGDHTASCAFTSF
# The other results are listed elsewhere or left out.
# Target: OsWRKY34 (Oryza sativa, UniProt Q0JBA9 1-250)
# Assay: protein-binding microarray (RPBM); PBS, 2% BSA, 51.3 ng/ul salmon testes DNA, 50 uM zinc acetate, 200 nM TF, 25 C, 1 h; high values mean tight binding
# Conditions: protein: recombinant; tags: N-terminal polyhistidine and DsRed monomer fusion (pET32a); label: CyDye5-dUTP incorporated in the synthesized complementary strand; 3' TTTTT single-stranded linker to array surface; dsDNA, one strand shown
# Method in brief: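 Ni–NTA purification followed expression in E. coli BL21-CodonPlus of transcription factors fused N-terminally to a polyhistidine tag and DsRed. At 200 nM in PBS with 2% BSA, salmon testes DNA and 50 µM zinc acetate, the protein was incubated for 1 h at 25 °C with a custom Agilent array that had been primer-extended with Cy5-dUTP and blocked with 2% BSA. After washing, the array was read on an Axon 4000B scanner. The binding signal is per-feature fluorescence intensity in arbitrary units.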
row,Sequence,binding signal
1,TCAACATAGATAAGCTCATCTAGTCTGTCAAATTGGCCATCGGAGTCACCTAGTGCAG,8060 fluorescence intensity (a.u.)
2,TGGTGGTGGTGGTGAGGGGTTAGAGGGGCTAGGGTTGCGGCGGAGTCACCTAGTGCAG,11400 fluorescence intensity (a.u.)
3,GGGGTTTCCTCGGGGCTTAGAGGGATGACCGTGGACGACGCGGAGTCACCTAGTGCAG,15800 fluorescence intensity (a.u.)
4,GTTCAGGTTTTGTTGTTTACCATTTCAGTGAGCTATTAGTCGGAGTCACCTAGTGCAG,8100 fluorescence intensity (a.u.)
5,CGATGAGATCTATAACTTTGTAGTTTATCACTTTTCCATTCGGAGTCACCTAGTGCAG,8550 fluorescence intensity (a.u.)
6,ATGCTACTCTCGCTCTGCTACTCACTCCTGGCGCCGGTGACGGAGTCACCTAGTGCAG,9200 fluorescence intensity (a.u.)
7,TACATGTGGTCAGCAATTTTCATGCTCCTTGCCCTTTTCACGGAGTCACCTAGTGCAG,13000 fluorescence intensity (a.u.)
8,TTCTTTGTTCTTTACCTGCTCCGGTGGTGGACCACCACCCCGGAGTCACCTAGTGCAG,11000 fluorescence intensity (a.u.)
9,TCCAACTCACTTATCTCGTTTTCCGCGCACACGTTTTTTACGGAGTCACCTAGTGCAG,16500 fluorescence intensity (a.u.)
10,AGTTGTTGCGGTGTGTTTGCTGTTCTTGGTTGGAGGCATGCGGAGTCACCTAGTGCAG,11400 fluorescence intensity (a.u.)
11,CCAACCCCTCCCACCTCGCCACCTTTTTTCACCTTTTCCCCGGAGTCACCTAGTGCAG,8240 fluorescence intensity (a.u.)
12,CCCTAAACAGGTCAACCTCAGGTGTTGACTAGAGTACTAGCGGAGTCACCTAGTGCAG,8290 fluorescence intensity (a.u.)
13,TGGTTGTGTTTATAATGTACTTCTACTATAGTAATTTTATCGGAGTCACCTAGTGCAG,8560 fluorescence intensity (a.u.)
14,AATTTTCTTCACCTGCTGCAATGCATGGGCATTTTGCTAGCGGAGTCACCTAGTGCAG,8150 fluorescence intensity (a.u.)
15,CTCCAACCGCATCAACACTCGTCGCGCGAAGCGTACCATCCGGAGTCACCTAGTGCAG,8440 fluorescence intensity (a.u.)
16,GTCGTCTCCCACACTCTCCGCTTCCGTTCCGTCTCGTTGTCGGAGTCACCTAGTGCAG,11100 fluorescence intensity (a.u.)
17,GGGTTTGCACGAAGATATTATACTTCCTCAGCTCTGTTCTCGGAGTCACCTAGTGCAG,10800 fluorescence intensity (a.u.)
18,ATCTCGCCTGACCACCGTTCCCCACCTCGCCTCGCCTCGCCGGAGTCACCTAGTGCAG,11800 fluorescence intensity (a.u.)
19,AAACTCGGCGTGGCCACAGTCCTCCACCGCCCTCCGCATGCGGAGTCACCTAGTGCAG,8550 fluorescence intensity (a.u.)
20,CGAACCGAGCTTAGGTGATTTTTGCGGGTGGAGTTTTTTACGGAGTCACCTAGTGCAG,8460 fluorescence intensity (a.u.)
21,CCCGCGCATCACCATGGACCACACTTCATACGCACGCAGCCGGAGTCACCTAGTGCAG,13600 fluorescence intensity (a.u.)

row,Sequence,binding signal
1,CCACCTGTCTGGTTCGCGCGTTCTCCCGTCGGATCCCGCGCGGAGTCACCTAGTGCAG,10600 fluorescence intensity (a.u.)
2,TTTGCCACTGTTTTTGCTCATTGTTTAATGCTGCATCGATCGGAGTCACCTAGTGCAG,8580 fluorescence intensity (a.u.)
3,GCTGCGCGATCCAGGGTTTCGTGGTGTTGTTCCTCGTCTACGGAGTCACCTAGTGCAG,11300 fluorescence intensity (a.u.)
4,CCTCCTTTCCTAAATATTTGACGCCGTTGACTTTTTTAAACGGAGTCACCTAGTGCAG,13500 fluorescence intensity (a.u.)
5,TTACAATTTTATCACATATAAGTGGTCGACATTTGCTCATCGGAGTCACCTAGTGCAG,9400 fluorescence intensity (a.u.)
6,AAACTGCACGTGGACCTGAAGCATTTTCTCCTTCGTTTACCGGAGTCACCTAGTGCAG,11100 fluorescence intensity (a.u.)
7,AAATTGGTTGTCTTTTTACTACAGCCTGGTAGTATAACTTCGGAGTCACCTAGTGCAG,8210 fluorescence intensity (a.u.)
8,GTGCAAAAGCGCCCAACTCTACTCACTTTTCCCCAGCTTTCGGAGTCACCTAGTGCAG,9350 fluorescence intensity (a.u.)
9,AGTGTGTGTGTTGTGAGTGTCTATGTTGTACTGTGTAATTCGGAGTCACCTAGTGCAG,8390 fluorescence intensity (a.u.)
10,CTCGGGTTCGGGGTGCTTGCCTCGGGGCGCCGCGGCGGTGCGGAGTCACCTAGTGCAG,9540 fluorescence intensity (a.u.)
11,CATCTCAATCATCTTTTCTTTTTCCTTGTTTCGTCCTGATCGGAGTCACCTAGTGCAG,8920 fluorescence intensity (a.u.)
12,TTCTTCAGAAGTTACCGGTTTTCCACTTGATTTCGTGAAACGGAGTCACCTAGTGCAG,8240 fluorescence intensity (a.u.)
13,TGATTGTTGTTATGTTTGCACTAGTGAGTATGCAGTAAACCGGAGTCACCTAGTGCAG,9000 fluorescence intensity (a.u.)
14,CTCTCTCTTCTTCTTCGTGTTGTTGTTTCTCTCTCTGTCTCGGAGTCACCTAGTGCAG,11700 fluorescence intensity (a.u.)
15,CATTTCACGCGAACTCGAGCCCCACACATATATATACACACGGAGTCACCTAGTGCAG,9980 fluorescence intensity (a.u.)
16,ACTCTATCCTGCATCTGTTATAATTTCAAGTTCTAAACTGCGGAGTCACCTAGTGCAG,10300 fluorescence intensity (a.u.)
17,ATTTGTCGTCCAGTCTGATTTTCGTCCCTGAACCGCAAAACGGAGTCACCTAGTGCAG,10000 fluorescence intensity (a.u.)
18,TTTAAACATTTTATTTCCATTTTTAATTTTTTTTCCTTATCGGAGTCACCTAGTGCAG,8100 fluorescence intensity (a.u.)
19,TCGCGTAGGGGAGGGGTGAAATATATTTTTTATGCCGGGCCGGAGTCACCTAGTGCAG,18000 fluorescence intensity (a.u.)
20,GAAGACCGGCGACTGCTGCACTTTCTCCCGCGGGCCTCGCCGGAGTCACCTAGTGCAG,9010 fluorescence intensity (a.u.)
21,AATTCTACCCGCTCGGAGCTCCTCCCCTTTCATCGTCTCCCGGAGTCACCTAGTGCAG,8750 fluorescence intensity (a.u.)

# Retrieved one by one from the entries so far, four records:
row,Sequence,binding signal
8,GTGCAAAAGCGCCCAACTCTACTCACTTTTCCCCAGCTTTCGGAGTCACCTAGTGCAG,9350 fluorescence intensity (a.u.)
6,ATGCTACTCTCGCTCTGCTACTCACTCCTGGCGCCGGTGACGGAGTCACCTAGTGCAG,9200 fluorescence intensity (a.u.)
21,AATTCTACCCGCTCGGAGCTCCTCCCCTTTCATCGTCTCCCGGAGTCACCTAGTGCAG,8750 fluorescence intensity (a.u.)
14,CTCTCTCTTCTTCTTCGTGTTGTTGTTTCTCTCTCTGTCTCGGAGTCACCTAGTGCAG,11700 fluorescence intensity (a.u.)
